# For at least one compound, name, drawing or mass did not settle the structure.
# Test system: RB-p65 interaction
# Test: Co-immunoprecipitation of RB and p65 in PC-3 cells
# Type: cell-based, human
# Settings: palbociclib 5 μM, 24 hours, co-IP
# Excerpt: FIGS. 2A-H. RB phosphorylation by CDK4 enhances RB interaction with NFκB protein p65. (A) Western blot analysis of reciprocal co-immunoprecipitation of endogenous RB1 and p65 proteins in PC-3 cells. (B) Schematic diagram depicting a set of p65 recombinant protein constructs. Western blot analysis of RB proteins in PC-3 cells whole cell lysate pulled down by GST or GST-p65 recombinant proteins. Stars indicated expected molecular weight. (C) Western blot analysis of RB proteins in PC-3 whole cell lysate pulled down by GST or GST-p65 recombinant proteins. Cell lysates were treated with or without λ, phosphatase before GST-pull down. (D) Western blot analysis of PC-3 whole cell lysates (WCL) and co-IP samples. Cell lysates were treated with or without λ, phosphatase before IP. (E) Western blot analysis of WCL and co-IP samples in DU145 cells 24 hours after transfected with indicated plasmids. (F) Western blot analysis of WCL and co-IP samples in PC-3 cells. Cells were treated with or without palbociclib (5 μM) for 24 hours before IP. […] Western blot bands of co-IPed RB protein were quantified by ImageJ software and normalized to the quantified value of IP-ed RB in cells without TNFα treatment. […] Western blot bands of p65 protein were quantified by ImageJ software and normalized to the quantified value of p65 protein in cell lysate without immuno-depletion (preimmune sample). […]
compound,measurement,value
"CC(=O)c1c(C)c2cnc(Nc3ccc(N4CCNCC4)cn3)nc2n(C2CCCC2)c1=O [palbociclib, Palbociclib]",RB interaction with p65,largely decreased
